In PMC12004613 one finds binding data, which are given here for one molecule.

These are yes or no findings as the source states them, for the method shown. Binding seen in cells or lysates may run through a third protein. Here binding means that the protein was enriched with, or labelled near, the bait; the list need not be complete.

Assay [1] has as its target USUV NS4A fused to the biotin ligase TurboID (TurboID-NS4A) (Usutu virus (Netherlands 2016 strain)). The assay can be described thus: proximity labelling; TurboID fusions of NS4A transfected separately into 293T cells; 50 uM biotin for 1 h at 24 hpt; lysis in 0.5% NP-40 buffer; biotinylated proteins precipitated with NeutrAvidin agarose, washed with 1% SDS; mass spectrometry; compared with empty vector.

Assay [2] addresses USUV NS4A fused to the biotin ligase TurboID (NS4A-TurboID) (Usutu virus (Netherlands 2016 strain)). The assay is described as above.

B1: TMEM41B, endogenous in 293T cells (protein, UniProt Q5BJD5 1-291)
chain: MAKGRVAERSQLGAHHTTPVGDGAAGTRGLAAPGSRDHQKEKSWVEAGSARMSLLILVSIFLSAAFVMFLVYKNFPQLSEEERVNMKVPRDMDDAKALGKVLSKYKDTFYVQVLVAYFATYIFLQTFAIPGSIFLSILSGFLYPFPLALFLVCLCSGLGASFCYMLSYLVGRPVVYKYLTEKAVKWSQQVERHREHLINYIIFLRITPFLPNWFINITSPVINVPLKVFFIGTFLGVAPPSFVAIKAGTTLYQLTTAGEAVSWNSIFILMILAVLSILPAIFQKKLKQKFE
modifications: biotinylated by TurboID (sites not given)
B1: the binding result in assay [1] and in assay [2] was “binds” each time.
